In US20260055079A1, “PHTHALAZINONE COMPOUNDS AS PARP7 INHIBITORS” (AZKARRA THERAPEUTICS, INC., priority 2022, published 2026):
For at least one compound, name, drawing or mass did not settle the structure.

Chains of the proteins cited; added tags and fusions are not shown. Lines headed by an entry give the natural chain unless they say otherwise; changes in a name come on top.
UniProt Q7Z3E1: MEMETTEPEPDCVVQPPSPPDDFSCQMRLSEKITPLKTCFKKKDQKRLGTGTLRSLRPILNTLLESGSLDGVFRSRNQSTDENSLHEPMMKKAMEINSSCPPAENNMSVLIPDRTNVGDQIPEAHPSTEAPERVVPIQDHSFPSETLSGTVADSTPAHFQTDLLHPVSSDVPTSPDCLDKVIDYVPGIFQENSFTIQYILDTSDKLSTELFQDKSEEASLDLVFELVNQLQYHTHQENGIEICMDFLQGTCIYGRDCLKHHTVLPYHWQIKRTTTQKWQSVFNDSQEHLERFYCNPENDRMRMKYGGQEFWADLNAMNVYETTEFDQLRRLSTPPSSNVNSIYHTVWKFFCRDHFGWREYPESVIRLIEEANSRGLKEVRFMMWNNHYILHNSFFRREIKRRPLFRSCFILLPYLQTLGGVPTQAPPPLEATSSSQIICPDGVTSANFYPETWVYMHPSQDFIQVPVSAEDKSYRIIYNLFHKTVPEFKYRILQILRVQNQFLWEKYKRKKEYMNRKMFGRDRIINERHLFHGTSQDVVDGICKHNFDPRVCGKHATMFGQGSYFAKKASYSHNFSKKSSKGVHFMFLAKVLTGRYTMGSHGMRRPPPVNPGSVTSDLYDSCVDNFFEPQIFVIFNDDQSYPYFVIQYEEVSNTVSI

Legend:
PARP7 [1] = biological target: T1, PARP7 (Mus musculus (Mouse), UniProt Q8C1B2); experiment: Cell fractionation and PARP7 Western blot in CT-26 cells; type: cell-based; settings: 300 nM, 18 h, fractionation
endogenous PARP7 = endogenous PARP7 (Mus musculus (Mouse), UniProt Q8C1B2); experiment: Endogenous PARP7 protein levels in CT-26 cells (western blot); type: cell-based
GFP-PARP7 [2] = biological target: T2, GFP-PARP7 (Homo sapiens (Human), UniProt Q7Z3E1); experiment: Live cell imaging of GFP-PARP7 in HeLa cells; type: cell-based; settings: HeLa cells overexpressing GFP-PARP7 and mRuby2-Nup90, 300 nM
IFN-β = IFN-β ELISA in CT-26 cells; type: cell-based; settings: 300 nM, 16 h, with or without STING inhibitor H-151 (500 nM)
Description: (§1) FIG. 4B provides of Western blots in FIG. 4A. Quantification was performed using BioRad ImageLab software. Curves were fit using four parameter nonlinear regression in GraphPad Prism. STAT1 and pSTAT1 levels were normalized to tubulin. Data was from 3 biological replicates. […] Treatment was as in FIG. 4A. Note: tubulin blot was the same as in FIG. 4A since samples were run on the same nitrocellulose membrane for western blot analysis. SE=short exposure; LE=long exposure. […] Treatment was as in FIG. 4A. Note: tubulin blot is the same as in FIG. 4A since samples were run on the same nitrocellulose membrane for western blot analysis. […] Quantification was performed using BioRad ImageLab software. Curves fitting was done using a four parameter nonlinear regression in GraphPad Prism. PARP7 levels were normalized to tubulin. Data was from 3 biological replicates. […] IFN-0 levels were determined by ELISA (PBL Assay Science). Statistical analysis was performed as one-way ANOVA in GraphPad Prism. ****=p<0.001. […] Luciferase levels were measured using a luciferase assay reagent (Promega).

NCI-H1373 cells = experiment: Cell Titer-Glo viability assay in NCI-H1373 cells; type: cell-based; settings: 6 d treatment, increasing concentrations
Source text: Curves were fit using three parameter a nonlinear regression in GraphPad Prism.

CT-26 cells = experiment: Viability of CT-26 cells; type: cell-based, mouse
HiBiT-PARP7 = HiBiT-PARP7 (Mus musculus (Mouse), UniProt Q8C1B2); experiment: Nuclear PARP7 immunofluorescence in HiBiT-PARP7 knockin CT-26 cells; type: cell-based; settings: HiBiT-PARP7 KI CT-26 cells, 300 nM, 18 h
STING = STING degradation and signaling Western blot in CT-26 cells; type: cell-based
Description: as §1, with “(Promega). […] Treatment was same as in FIG. 10A. Note: tubulin blot is the same as in FIG. 10A since samples were run on the same nitrocellulose membrane for western blot analysis. […] Treatment was same as in FIG. 10A. […] Proteins were detected by Western blot using specific antibodies.” for “(Promega).”

[3] = system: STAT1 and STAT1 Tyr701 phosphorylation (pSTAT1); experiment: STAT1 and pSTAT1 (Tyr701) western blot in CT-26 cells; type: cell-based, mouse; settings: increasing concentrations, 16 h
GFP-PARP7 [4] = biological target: T2, GFP-PARP7; experiment: GFP-PARP7 auto-MARylation in HEK 293T cells (Western blot); type: cell-based; settings: increasing concentrations, 18 h, anti-M/PAR antibody
IFN-β mRNA = IFN-β mRNA by RT-qPCR in MEFs; type: cell-based, mouse; settings: MEFs stimulated with the RIG-I agonist 3pRNA
[5] = system: STAT1 and phosphor-Tyr701-STAT1 (pSTAT1); experiment: STAT1 and pSTAT1 Western blot in CT-26 cells; type: cell-based
Description: as §1, with “(Promega). […] Treatment was same as in FIG. 10A. Note: tubulin blot is the same as in FIG. 10A since samples were run on the same nitrocellulose membrane for western blot analysis. […] Treatment was same as in FIG. 10A. […] Proteins were detected by Western blot using specific antibodies.” for “(Promega).”

PARP7 [6] = biological target: T1, PARP7; experiment: PARP7 protein levels Western blot in CT-26 cells; type: cell-based
Description: as §1, with “(Promega). […] Treatment was same as in FIG. 10A. Note: tubulin blot is the same as in FIG. 10A since samples were run on the same nitrocellulose membrane for western blot analysis. […] Treatment was same as in FIG. 10A. […] Proteins were detected by Western blot using specific antibodies.” for “(Promega).”

IFN-β transcription = experiment: IFN-β mRNA by quantitative RT-PCR in MEFs; type: cell-based, mouse; settings: 100 nM, 4 h, 3pRNA 100 ng/ml or cGAMP 5 mg/ml
[7] = system: type I interferon reporter; experiment: IRSE luciferase reporter in CT-26 cells; type: cell-based; settings: CT-26 cells stably expressing IRSE luciferase reporter, 16 h
Description: as §1

[8] = increasing concentrations, 16 h

CC#Cc1ccc2c(=O)[nH]nc(Cc3ccc(F)c(C(=O)N4CCN(c5ccc(C#N)cn5)CC4)c3)c2c1 [Example 10, 6-(4-(2-Fluoro-5-((4-oxo-7-(prop-1-ynyl)-3,4-dihydrophthalazin-1-yl)methyl)benzoyl)piperazin-1-yl)nicotinonitrile]
subcellular localisation of PARP7 (PARP7 [1]): PARP7 levels were only detected in nucleus
endogenous PARP7 levels (endogenous PARP7): increased PARP7 levels
time to detectable increase in nuclear PARP7 levels (GFP-PARP7 [2]): ≤ 30 min
IFN-β levels (IFN-β): increase IFN-β levels in a STING-dependent manner
cell viability (NCI-H1373 cells): decreases viability
viability in CT-26 cells (CT-26 cells): did not decrease viability
nuclear PARP7 protein levels (HiBiT-PARP7): increases nuclear PARP7 protein levels
STING and pIRF3 levels, time dependence (STING; 300 nM): decrease STING levels and increase pIRF3 levels in a time-dependent manner
STING degradation and signaling (STING; [8]): induced STING degradation and signaling, but not to the same extent as a STING agonist
STAT1 and pSTAT1 levels [3]: dose-dependently increased STAT1 and pSTAT1 levels
GFP-PARP7 auto-MARylation (GFP-PARP7 [4]): inhibits GFP-PARP7 auto-MARylation in a dose-dependent manner
IFN-β mRNA (IFN-β mRNA): synergistic induction
STAT1 and pSTAT1 levels, time dependence ([5]; 300 nM): increase STAT1 and pSTAT1 in a time-dependent manner
STAT1 and pSTAT1 levels, dose dependence [5, 8]: increase STAT1 and phosphor-Tyr701-STAT1 (pSTAT1) in a dose-dependent manner
PARP7 levels, time dependence (PARP7 [6]; 300 nM): increase PARP7 levels in a time-dependent manner
PARP7 levels, dose dependence (PARP7 [6]; [8]): increase PARP7 levels in a dose-dependent manner
3pRNA- and cGAMP-stimulated IFN-β transcription (IFN-β transcription): enhances 3pRNA- and cGAMP-stimulated IFN-β transcription
type I interferon reporter levels [7]: increase type I interferon reporter levels in a dose dependent manner
